From PubChem BioAssay AID1671190 (National Center for Advancing Translational Sciences (NCATS), 2021)
The whole screen tested about 580,000 compounds, of which about 6,100 (1.1%) were called active. The shares of active, inactive and inconclusive entries below differ from those in the screen. Calls follow the shape of the dose curve; as a rule, active = well fitted inhibition curve with a large enough effect; inconclusive = small, poorly fitted or top-dose-only effect, or another doubt; inactive = no such curve, though single readings can be large or run the other way. Where the call is inconclusive, the potency comes from a doubtful curve fit.
% is scaled to controls: 0 for no effect and ±100 for the full control effect; potency is read from the fitted curve at half-maximal effect.

By UniProt entry, the sequences of proteins in these tests, tags left out. Where a name states a change or a piece, a line headed by the entry shows the natural chain unless it says otherwise.
UniProt P18054: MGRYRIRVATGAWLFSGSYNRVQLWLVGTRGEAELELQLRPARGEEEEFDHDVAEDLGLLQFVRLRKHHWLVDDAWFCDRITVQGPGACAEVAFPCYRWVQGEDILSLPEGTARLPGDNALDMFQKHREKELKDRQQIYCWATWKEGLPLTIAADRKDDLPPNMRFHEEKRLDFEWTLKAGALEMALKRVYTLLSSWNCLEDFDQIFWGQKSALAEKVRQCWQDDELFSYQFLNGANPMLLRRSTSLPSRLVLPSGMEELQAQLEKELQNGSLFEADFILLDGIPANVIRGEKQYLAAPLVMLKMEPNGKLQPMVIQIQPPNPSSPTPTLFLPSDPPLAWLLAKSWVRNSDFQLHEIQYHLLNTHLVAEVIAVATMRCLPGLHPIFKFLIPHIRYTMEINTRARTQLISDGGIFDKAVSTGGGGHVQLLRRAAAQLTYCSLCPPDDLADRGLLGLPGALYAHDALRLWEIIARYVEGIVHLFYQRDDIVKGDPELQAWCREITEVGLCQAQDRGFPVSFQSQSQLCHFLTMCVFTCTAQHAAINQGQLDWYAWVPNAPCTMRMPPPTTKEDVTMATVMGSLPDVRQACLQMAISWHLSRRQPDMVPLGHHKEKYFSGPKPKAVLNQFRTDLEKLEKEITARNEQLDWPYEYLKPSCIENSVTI

What follows are compounds tested against Polyunsaturated fatty acid lipoxygenase ALOX12 (Homo sapiens) (UniProt P18054) (assay: Primary qHTS assay for inhibitors of human arachidonate 12S-lipoxygenase (ALOX12): Round 2). Conditions: purified 12hLO, xylenol orange hydroperoxide absorbance; activity change, negative = inhibition: at 108 µM (top of the series) unless noted.
How it was run: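 Purified human 12hLO at 150 nM in 25 mM Hepes, 0.01% Triton X-100, pH 7.0, preincubated 15 min at room temperature with compound. Reaction started with 40 uM arachidonic acid, 30 min at room temperature. Hydroperoxide measured by Fe-xylenol orange, 573/405 nm absorbance ratio.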
For `CN(Cc1ccccc1)C(=O)Nc1ccc2oc(C3CC3)nc2c1`, the “activity change, negative = inhibition” value was inactive: -51.7%.
`Cc1nc(SCC(=O)Nc2ccc(F)cc2)c2oc3ccccc3c2n1` was tested, and the Potency was inconclusive: 126 µM [inhibitor, single point].
`Cc1oc(C(C)(C)C)cc1C(=O)N1CCN(c2ncccc2C(F)(F)F)CC1` was tested, and the Potency was inconclusive: 112 µM [inhibitor, partial curve, poor fit].
In the case of `Cc1cccc(Nc2nc(N)c(C(=O)c3ccccc3Cl)s2)c1`, the Potency is reported as inconclusive: 112 µM [inhibitor, single point].
In the case of `O=C(c1cc(-c2ccco2)nc2ccccc12)N1CCN(c2ccc(F)cc2)CC1`, the Potency is reported as inconclusive: 44.7 µM [inhibitor, partial curve, poor fit].
In the case of `O=C(Oc1ccc([N+](=O)[O-])cc1)c1cc(-c2ccccc2)nc2ccccc12`, the Potency is reported as inconclusive: 39.8 µM [inhibitor, partial curve, poor fit].
In the case of `Cc1ccc(S(=O)(=O)c2nc(-c3ccco3)oc2SCC(N)=O)cc1`, the Potency is reported as inconclusive: 31.6 µM [inhibitor, partial curve, poor fit].
For `O=C(CC1CCN(C(=O)c2ccc(F)c(F)c2)C1)NCc1ccccc1` (centres undefined), the “activity change, negative = inhibition” value was inactive: 12.6%.
With `CCc1ccc(NC(=O)Cn2c(=O)n(-c3ccc(OC)cc3)c(=O)c3ccc(C(=O)NCc4ccc(C)cc4)cc32)cc1` the activity change, negative = inhibition was inconclusive: -31.2% [inhibitor].
With `COc1cc(CNc2ncnc3c2[nH]c2ccc(C)cc23)cc(OC)c1` the Potency was inconclusive: 50.1 µM [inhibitor, partial curve, poor fit].
`Cc1ccc([C@H]2C(C(=O)O)=CC[C@@H](c3ccc(C(C)C)cc3)N2S(=O)(=O)c2ccc(C)cc2)cc1` was tested, and the Potency was inconclusive: 44.7 µM [inhibitor, partial curve, poor fit].
`COc1ccc(-c2cccc(NS(=O)(=O)c3ccc([N+](=O)[O-])cc3)c2)nn1` was tested, and the “activity change, negative = inhibition” value was inactive: -9.06%.
In the case of `COCCn1cc(C(=O)NCCCOC(C)C)c2c3ccccc3n(C)c2c1=O`, the activity change, negative = inhibition is reported as inconclusive: -30.5% [inhibitor].
For `Nc1[nH]c(C(=O)c2ccccc2)c(-c2ccccc2Cl)c1C(=O)c1ccccc1`, the “activity change, negative = inhibition” value was inactive: -29.4%.
In the case of `COc1ccc(OC)c(S(=O)(=O)Nc2cc(C(=O)NC(C)C)ccc2N2CCNCC2)c1`, the Potency is reported as inconclusive: 35.5 µM [inhibitor, partial curve, poor fit].
In the case of `NC(=S)N=Nc1c(O)[nH]c2c(Br)cc(Br)cc12`, the “activity change, negative = inhibition” value is reported as inactive: -11.3%.
For `COc1ccccc1CNC(=O)CS(=O)(=O)c1ccccc1`, the “activity change, negative = inhibition” value was inactive: 12.7%.
`CC(C)N(Cc1nc(-c2ccc(Cl)cc2)no1)C(=O)CCC1CCCC1` was tested, and the Potency was inconclusive: 100 µM [inhibitor, single point].
For `Cc1ccc(C(=O)C(C)OC(=O)Cn2c(C)csc2=O)cc1` (centres undefined), the Potency was inconclusive: 2.51 µM [inhibitor, full curve, poor fit].
`C=CCOc1c(OC)cc(/C=N/Nc2cccc(C(=O)O)c2)c(Br)c1Br` was tested, and the Potency was inconclusive: 50.1 µM [inhibitor, partial curve, poor fit].
`Cc1csc(CNc2ncnc3ccc(-c4cccnc4)cc23)c1` was tested, and the Potency was inconclusive: 89.1 µM [inhibitor, partial curve, poor fit].
`O=C(OC(C(=O)NCc1ccc2c(c1)OCO2)c1ccncc1)c1ccc(Cl)nc1` (centres undefined) was tested, and the Potency was inconclusive: 50.1 µM [inhibitor, partial curve, poor fit].
For `COc1cc(-c2nc3n(n2)C(c2ccncc2)C2=C(CCCC2=O)N3)cc(OC)c1OC` (centres undefined), the “activity change, negative = inhibition” value was inactive: -9.43%.
For `Cc1ccccc1C(=O)NC(C)c1nc(-c2ccccc2C)no1` (centres undefined), the Potency was inconclusive: 112 µM [inhibitor, single point].
For `OC(c1ccc(Cl)cc1)c1ncc(-c2ccc(Cl)cc2)[nH]1` (centres undefined), the Potency was inconclusive: 44.7 µM [inhibitor, partial curve, poor fit].
For `COCCCNC(=O)CN(C)C(=O)c1ccc(C(=O)OC)cc1`, the “activity change, negative = inhibition” value was inactive: 6.95%.
With `Cc1nnc(NC(=O)c2cccc(F)c2)s1` the Potency was inconclusive: 50.1 µM [inhibitor, partial curve, poor fit].
With `COCCn1cnc2c1c(=O)n(Cc1ccc(C(N)=O)cc1)c(=O)n2CC(C)C` the “activity change, negative = inhibition” value was inactive: 2.66%.
With `Cc1sc(NC(=O)Cc2ccc3c(c2)OCO3)nc1-c1ccc2c(c1)CCN2C(=O)c1cccc(F)c1` the Potency was inconclusive: 11.2 µM [inhibitor, full curve, poor fit].
With `C#CCN(C[C@H]1[C@H](OC(=O)NCCCCCC)[C@H](OC(=O)NCCCCCC)CN(C(=O)OC(C)C)N1C(=O)OC(C)C)S(=O)(=O)c1ccc(C)cc1` the Potency was inconclusive: 100 µM [inhibitor, single point].
For `S=c1[nH]nc(-c2ccco2)n1-c1ccccc1Cl`, the Potency was inconclusive: 50.1 µM [inhibitor, partial curve, poor fit].
`Cc1cc(C)c(Cn2c(C3CC(=O)N(c4ccc(F)cc4)C3)nc3ccccc32)c(C)c1` (centres undefined) was tested, and the Potency was inconclusive: 0.501 µM [inhibitor, full curve, poor fit].
With `COC(=O)C1=C(C)N(Cc2cccc(C(F)(F)F)c2)C(=NCc2ccccc2C(F)(F)F)NC1c1cccc(F)c1` (centres undefined) the Potency was inconclusive: 89.1 µM [inhibitor, partial curve, poor fit].
In the case of `Cc1noc(NS(=O)(=O)c2ccc(NC(=O)C(F)(F)C(F)(F)C(F)(F)F)cc2)c1C`, the Potency is reported as inconclusive: 112 µM [inhibitor, partial curve, poor fit].
In the case of `CCn1c2ccccc2c2cc(/C=N/NC(=O)c3ccccc3C)ccc21`, the “activity change, negative = inhibition” value is reported as inactive: -6.9%.
With `COc1ccc(CN2C(=O)[C@@H]3C[C@@H](O)CN3C3(CNC3)C2=O)cc1` the Potency was inconclusive: 25.1 µM [inhibitor, full curve].
In the case of `Cc1ccc(/C(=N/Nc2nc3ccccc3s2)C2=C(O)c3ccccc3C2=O)cc1`, the Potency is reported as active: 3.55 µM.
In the case of `COc1ccc(C(=O)N/C(=C\c2ccc(-c3cccc(C(F)(F)F)c3)o2)C(=O)NC(C)C)cc1`, the Potency is reported as inconclusive: 15.8 µM [inhibitor, full curve].
`[O-][n+]1ccccc1SC/C=C/c1ccccc1` was tested, and the Potency was inconclusive: 31.6 µM [inhibitor, partial curve].
With `CC(C)CCNC(=O)NCCn1c(-c2ccccc2)nc2ccccc21` the Potency was inconclusive: 50.1 µM [inhibitor, partial curve, poor fit].
For `C/C(=N/NC(=S)Nc1ccc(SC(F)F)cc1)c1cccc(C(F)(F)F)c1`, the Potency was inconclusive: 39.8 µM [inhibitor, partial curve, poor fit].
In the case of `Cc1cc(NC(=O)CCC(=O)N(c2cccnc2)C(C(=O)NC2CCCC2)c2ccccc2)no1` (centres undefined), the “activity change, negative = inhibition” value is reported as inactive: 42.5%.
With `COc1ccc(CC(N)c2csc(NC(=O)Nc3cccc(C(F)(F)F)c3)n2)cc1` (centres undefined) the Potency was inconclusive: 44.7 µM [inhibitor, partial curve, poor fit].
For `COc1ccccc1NC(=S)Nc1cccc2cnccc12`, the “activity change, negative = inhibition” value was inactive: -14%.
With `O=c1nc(Nc2ccc(OCc3ccccc3)cc2)sc2ncccc12` the “activity change, negative = inhibition” value was inactive: 0%.
`Cc1cc(NC(=O)CCC(=O)N(c2ccccc2)C(C(=O)NC2CCCC2)c2cccs2)no1` (centres undefined) was tested, and the “activity change, negative = inhibition” value was inactive: -11.7%.
With `CCn1cc(C(=O)OC)c(=O)c2ccc(C)nc21` the “activity change, negative = inhibition” value was inactive: -8.08%.
With `Nc1ccc2nn(-c3ccc(F)cc3)nc2c1` the “activity change, negative = inhibition” value was inactive: -28.9%.
`Cc1scc(-c2ccccc2)[n+]1C` was tested, and the Potency was active: 17.8 µM.
`CCOc1ncccc1C(=O)OCC(=O)Nc1cccc(S(=O)(=O)N2CCCCCC2)c1` was tested, and the Potency was inconclusive: 100 µM [inhibitor, single point].
For `O=C(Nc1nnc(-c2ccc(Cl)cc2)o1)C1CCN(S(=O)(=O)c2ccc3ccccc3c2)CC1`, the Potency was inconclusive: 7.94 µM [inhibitor, partial curve, poor fit].
In the case of `CCOC(=O)c1ccc(NC(=O)CCS(=O)(=O)c2ccc(Br)s2)cc1`, the “activity change, negative = inhibition” value is reported as inactive: 11.9%.
With `O=C(c1ccc(Cl)cc1)N1CCn2c(nn(-c3ccc([N+](=O)[O-])cc3)c2=O)C1` the Potency was inconclusive: 39.8 µM [inhibitor, partial curve].
In the case of `CCN(CC)c1cc(NCCO)c([N+](=O)[O-])c2nonc12`, the Potency is reported as inconclusive: 79.4 µM [inhibitor, partial curve, poor fit].
In the case of `CCOC(=O)N1CCN(C(=O)c2cnc(Nc3ccccc3OC)c3ccccc23)CC1`, the “activity change, negative = inhibition” value is reported as inactive: 0%.
With `Cc1cc2oc(C(=O)O)c(C)c2cc1C` the Potency was inconclusive: 50.1 µM [inhibitor, single point].
With `C=C(C)[C@@H]1CCC2=CCC[C@@H](C)[C@]2(C)C1` the Potency was inconclusive: 224 µM [inhibitor, single point].
`O=C(Nc1cccc2ccccc12)NC(Cc1ccccc1)C(=O)O` (centres undefined) was tested, and the Potency was inconclusive: 35.5 µM [inhibitor, partial curve, poor fit].
For `O=C(O)CCCCCN1C(=O)/C(=C\c2ccc(-c3ccc(Cl)cc3)o2)SC1=S`, the Potency was inconclusive: 44.7 µM [inhibitor, partial curve].
For `CCn1c(CN2C(=O)CSc3ccccc32)n[nH]c1=S`, the Potency was inconclusive: 50.1 µM [inhibitor, partial curve, poor fit].
For `O=C(O)c1ccc(Nc2cc(Cl)c3nonc3c2[N+](=O)[O-])cc1`, the Potency was inconclusive: 50.1 µM [inhibitor, partial curve, poor fit].
In the case of `Cc1ccc(C(=O)CCC(=O)OCC(=O)N(C)c2c(N)n(Cc3ccccc3)c(=O)[nH]c2=O)cc1`, the Potency is reported as inconclusive: 4.47 µM [inhibitor, full curve, poor fit].
For `CCCS(=O)(=O)NC(=O)C1(C)CCN(C(=O)c2ccc3c(c2)OCO3)C1` (centres undefined), the Potency was inconclusive: 5.62 µM [inhibitor, full curve, poor fit].
In the case of `O=C(O)CCNS(=O)(=O)c1ccccc1Cl`, the Potency is reported as inconclusive: 126 µM [inhibitor, partial curve, poor fit].
